# Values of other authors as cited in patent publication US8846066B2, “Methods and related compositions for reduction of fat and skin tightening” (The Regents of the University of California, priority 2004, dated 2014).
# At least one compound was matched to its structure with a doubt left.
# Details: critical micellar concentration in H2O; cited from earlier work
row,SMILES,CMC in H2O [M]
1,C[C@H](CCC(=O)O)[C@H]1CC[C@H]2[C@@H]3[C@H](O)C[C@@H]4C[C@H](O)CC[C@]4(C)[C@H]3C[C@H](O)[C@]12C [Cholate],0.014
2,CCCCCCCCS[C@@H]1O[C@H](CO)[C@@H](O)[C@H](O)[C@H]1O [Octyl-thioglucopyranoside],0.009
3,CCCCCCCCCCCCCC[N+](C)(C)CCCS(=O)(=O)[O-] [Zwitergent 3-14],0.0003
4,CCCCCCCCO[C@@H]1O[C@H](CO)[C@@H](O)[C@H](O)[C@H]1O [n-Octylglucoside],0.0145
